Reference: the supplement of paper PMC7238544
Counter-ions that a name gives are not always drawn. ± gives the standard deviation of the averaged measurements. The list shows a part of the results. The data scatter; read single values as rough.

What was measured:
hAMSC donor 1 [1] = test: Hoechst total cell count ratio vs vehicle control; higher = more cells (less toxicity)
hAMSC donor 2 [2] = test: as above
hAMSC donor 1 [3] = test: transgenic luciferase activity (RLU/mg protein) fold change vs vehicle control (ratio); higher = more transgene expression
hAMSC donor 2 [4] = test: as above
hAMSC donor 1 [5] = test: transfection efficiency (EGFP+ cells / Hoechst count) fold change vs vehicle control (ratio); hAMSC are human adipose-derived mesenchymal stem cells given an EGFP-luciferase plasmid by lipofection; higher = enhanced transfection
hAMSC donor 2 [6] = test: as above
[7] = priming compound concentration 0.2 µM
[8] = priming compound concentration 1.7 µM
[9] = priming compound concentration 13 µM

| Structure (SMILES) | Hoechst total cell count ratio (hAMSC donor 1 [1]; [7]) | Hoechst total cell count ratio (hAMSC donor 1 [1]; [8]) | Hoechst total cell count ratio (hAMSC donor 1 [1]; [9]) | Hoechst total cell count ratio (hAMSC donor 2 [2]; [7]) | Hoechst total cell count ratio (hAMSC donor 2 [2]; [8]) | Hoechst total cell count ratio (hAMSC donor 2 [2]; [9]) | transgenic luciferase activity (hAMSC donor 1 [3]; [8]) | transgenic luciferase activity (hAMSC donor 2 [4]; [7]) | transgenic luciferase activity (hAMSC donor 2 [4]; [8]) | transfection efficiency (hAMSC donor 1 [5]; [7]) | transfection efficiency (hAMSC donor 1 [5]; [8]) | transfection efficiency (hAMSC donor 1 [5]; [9]) | transfection efficiency (hAMSC donor 2 [6]; [7]) | transfection efficiency (hAMSC donor 2 [6]; [8]) | transfection efficiency (hAMSC donor 2 [6]; [9]) | transgenic luciferase activity (hAMSC donor 1 [3]; [9]) | transgenic luciferase activity (hAMSC donor 2 [4]; [9]) |
| --- | --- | --- | --- | --- | --- | --- | --- | --- | --- | --- | --- | --- | --- | --- | --- | --- | --- |
| COc1cc(N)c(Cl)cc1C(=O)NC1CCN(CCCOc2ccc(F)cc2)CC1OC (stereo not given) [Cisapride hydrate] | 1.07 ± 0.15 | 1.14 ± 0.091 | 1.15 ± 0.1 | 1.2 ± 0.13 | 1.41 ± 0.3 | 1.1 ± 0.15 | 1.07 ± 0.4 | 0.885 ± 0.34 | 0.835 ± 0.05 | 1.15 ± 0.18 | 0.964 ± 0.13 | 1.38 ± 0.64 | 1.15 ± 0.15 | 0.851 ± 0.25 | 0.857 ± 0.14 | – | – |
| N[C@@H](Cc1cc(I)c(Oc2ccc(O)c(I)c2)c(I)c1)C(=O)O [3,5,3'-Triiodothyronine] | 1.09 ± 0.092 | 1.11 ± 0.16 | 1.07 ± 0.25 | 1.3 ± 0.41 | 1.32 ± 0.17 | 1.39 ± 0.33 | 0.94 ± 0.079 | 0.872 ± 0.26 | 0.907 ± 0.059 | 1.24 ± 0.6 | 1.3 ± 0.12 | 1.65 ± 0.3 | 1.06 ± 0.32 | 1.14 ± 0.21 | 1.15 ± 0.35 | – | – |
| CCN1CCN(c2cc3c(cc2F)c(=O)c(C(=O)O)cn3C2CC2)CC1 [Enrofloxacin] | 1.19 ± 0.12 | 1.22 ± 0.21 | 1.05 ± 0.14 | 1.12 ± 0.094 | 1.02 ± 0.13 | 1.1 ± 0.051 | – | 0.669 ± 0.15 | – | 0.676 ± 0.065 | 1.05 ± 0.11 | 0.873 ± 0.14 | 1.07 ± 0.15 | 1.04 ± 0.24 | 1.02 ± 0.28 | 1.05 ± 0.24 | 0.72 ± 0.093 |
| O=C(O)CCCc1ccccc1 [4-Phenylbutyric acid] | 1.25 ± 0.05 | 1.05 ± 0.094 | 1.17 ± 0.065 | 0.803 ± 0.11 | 0.926 ± 0.15 | 0.919 ± 0.013 | 1.17 ± 0.26 | – | 0.91 ± 0.55 | 0.812 ± 0.23 | 1.08 ± 0.39 | 1.47 ± 0.43 | 1.07 ± 0.063 | 1.21 ± 0.29 | 1 ± 0.13 | – | 0.832 ± 0.18 |
| O=c1c(-c2ccccc2)c1-c1ccccc1 [Diphenylcyclopropenone] | 1.12 ± 0.039 | 1.01 ± 0.048 | 0.739 ± 0.038 | 1.34 ± 0.16 | 1.07 ± 0.15 | 0.342 ± 0.17 | 1.14 ± 0.3 | 0.663 ± 0.27 | 0.831 ± 0.09 | 1.18 ± 0.26 | 1.22 ± 0.21 | 2.28 ± 0.41 | 0.813 ± 0.068 | 1.38 ± 0.66 | 1.59 ± 0.32 | – | – |
| COc1cccc2c1C(=O)c1c(O)c3c(c(O)c1C2=O)C[C@@](O)(C(C)=O)C[C@@H]3O[C@H]1C[C@H](N)[C@H](O)[C@H](C)O1 [Daunorubicin hydrochloride] | 0.781 ± 0.054 | 0.086 ± 0.035 | 0.116 ± 0.021 | 0.395 ± 0.03 | 0.182 ± 0.016 | 0.0797 ± 0.014 | – | 3.93 ± 0.26 | 2.41 ± 0.078 | 1.29 ± 0.32 | – | 1.67 ± 0.47 | 3.3 ± 0.6 | 3.834 ± 0.037 | 0.679 ± 0.31 | 0.0295 ± 0.019 | 0.00392 ± 0.0043 |
| O=C1NC(=O)C(c2ccccc2)(c2ccccc2)N1 [Dilantin] | 1.12 ± 0.022 | 1.26 ± 0.094 | 0.881 ± 0.058 | 1.14 ± 0.13 | 1.01 ± 0.087 | 1.02 ± 0.12 | – | 0.794 ± 0.16 | – | 0.912 ± 0.18 | 0.984 ± 0.41 | 0.914 ± 0.1 | 1.35 ± 0.34 | 1.12 ± 0.0084 | 1 ± 0.019 | 0.743 ± 0.11 | 0.552 ± 0.11 |
| CC(C)C[C@H](NC(=O)[C@@H](COC(C)(C)C)NC(=O)[C@H](Cc1ccc(O)cc1)NC(=O)[C@H](CO)NC(=O)[C@H](Cc1c[nH]c2ccccc12)NC(=O)[C@H](Cc1cnc[nH]1)NC(=O)[C@@H]1CCC(=O)N1)C(=O)N[C@@H](CCCNC(=N)N)C(=O)N1CCC[C@H]1C(=O)NNC(N)=O [Goserelin acetate] | 1.02 ± 0.074 | 1.08 ± 0.071 | 1.18 ± 0.071 | 1.36 ± 0.21 | 1.46 ± 0.19 | 1.32 ± 0.081 | 0.688 ± 0.26 | 0.923 ± 0.19 | 0.856 ± 0.091 | 1.05 ± 0.093 | 1.06 ± 0.25 | 1.79 ± 0.56 | 0.754 ± 0.056 | 1.03 ± 0.032 | 0.978 ± 0.049 | – | – |
| CN1CCCCC1CCN1c2ccccc2Sc2ccc([S+](C)[O-])cc21 (stereo not given) [Mesoridazine besylate] | 1.22 ± 0.1 | 1.13 ± 0.057 | 1.21 ± 0.019 | 1.55 ± 0.32 | 1.43 ± 0.14 | 1.44 ± 0.31 | 0.778 ± 0.022 | 0.72 ± 0.15 | 0.521 ± 0.12 | 0.719 ± 0.35 | 0.885 ± 0.16 | 1.29 ± 0.11 | 0.892 ± 0.21 | 0.898 ± 0.19 | 0.743 ± 0.086 | – | – |
| O=C1CN(/N=C/c2ccc(-c3ccc([N+](=O)[O-])cc3)o2)C(=O)N1 [Dantrolene sodium] | 1.24 ± 0.11 | 1.25 ± 0.086 | 1.24 ± 0.24 | 1.17 ± 0.088 | 1.1 ± 0.066 | 1.18 ± 0.092 | – | 0.664 ± 0.053 | – | 1.04 ± 0.41 | 1.06 ± 0.22 | 1.07 ± 0.14 | 1.15 ± 0.067 | 0.966 ± 0.084 | 1.12 ± 0.14 | 0.857 ± 0.67 | 0.557 ± 0.16 |
| C#C[C@]1(O)CC[C@H]2[C@@H]3CCc4cc(OC)ccc4[C@H]3CC[C@@]21C [Mestranol] | 1.18 ± 0.18 | 1.23 ± 0.11 | 1.19 ± 0.072 | 0.978 ± 0.15 | 1.08 ± 0.058 | 1.68 ± 0.49 | 2.27 ± 1.2 | 0.7 ± 0.25 | – | 0.952 ± 0.084 | 1.08 ± 0.16 | 0.847 ± 0.2 | 1.13 ± 0.32 | 0.942 ± 0.15 | 1.18 ± 0.19 | – | 0.726 ± 0.95 |
| NC(N)=Nc1nc(CSCC/C(N)=N/S(N)(=O)=O)cs1 [Famotidine] | 1.04 ± 0.12 | 1.01 ± 0.026 | 0.992 ± 0.082 | 0.915 ± 0.093 | 1.17 ± 0.12 | 1.25 ± 0.096 | 0.791 ± 0.14 | 0.912 ± 0.062 | 1.01 ± 0.12 | 1.21 ± 0.14 | 1.79 ± 0.2 | 1.73 ± 0.39 | 1.21 ± 0.17 | 1.22 ± 0.062 | 0.899 ± 0.092 | – | – |
| C=C[C@H]1CN2CC[C@H]1C[C@@H]2[C@@H](O)c1ccnc2ccc(OC)cc12 [Quinidine] | 1.16 ± 0.091 | 1.52 ± 0.065 | 1.17 ± 0.089 | 1.06 ± 0.035 | 1.1 ± 0.17 | 1.3 ± 0.2 | – | 0.795 ± 0.036 | – | 1.27 ± 0.27 | 0.68 ± 0.048 | 1.25 ± 0.49 | 1.27 ± 0.27 | 1.01 ± 0.013 | 0.96 ± 0.21 | 0.854 ± 0.25 | 0.531 ± 0.16 |
| N[C@@H]1CONC1=O [D-Cycloserine] | 1.39 ± 0.14 | 1.23 ± 0.19 | 1.53 ± 0.23 | 1.44 ± 0.15 | 1.26 ± 0.21 | 1.14 ± 0.08 | 1.74 ± 0.24 | – | 0.383 ± 0.19 | 1.1 ± 0.3 | 1.19 ± 0.18 | 1.28 ± 0.95 | 0.793 ± 0.14 | 0.916 ± 0.11 | 1.11 ± 0.035 | – | 0.572 ± 0.092 |
| CN(C)CCCN1c2ccccc2CCc2ccc(Cl)cc21 [Clomipramine hydrochloride] | 1.3 ± 0.14 | 1.82 ± 0.13 | 1.44 ± 0.17 | 1.07 ± 0.047 | 1.21 ± 0.018 | 1.77 ± 0.25 | – | 0.618 ± 0.24 | – | 1.16 ± 0.25 | 0.685 ± 0.18 | 0.516 ± 0.19 | 1.05 ± 0.11 | 0.8 ± 0.068 | 0.564 ± 0.11 | 0.555 ± 0.22 | 0.289 ± 0.06 |

Single records, from the list above. Order of values: Hoechst total cell count ratio (hAMSC donor 1 [1]; [7]) | Hoechst total cell count ratio (hAMSC donor 1 [1]; [8]) | Hoechst total cell count ratio (hAMSC donor 1 [1]; [9]) | Hoechst total cell count ratio (hAMSC donor 2 [2]; [7]) | Hoechst total cell count ratio (hAMSC donor 2 [2]; [8]) | Hoechst total cell count ratio (hAMSC donor 2 [2]; [9]) | transgenic luciferase activity (hAMSC donor 1 [3]; [8]) | transgenic luciferase activity (hAMSC donor 2 [4]; [7]) | transgenic luciferase activity (hAMSC donor 2 [4]; [8]) | transfection efficiency (hAMSC donor 1 [5]; [7]) | transfection efficiency (hAMSC donor 1 [5]; [8]) | transfection efficiency (hAMSC donor 1 [5]; [9]) | transfection efficiency (hAMSC donor 2 [6]; [7]) | transfection efficiency (hAMSC donor 2 [6]; [8]) | transfection efficiency (hAMSC donor 2 [6]; [9]) | transgenic luciferase activity (hAMSC donor 1 [3]; [9]) | transgenic luciferase activity (hAMSC donor 2 [4]; [9])
`COc1cccc2c1C(=O)c1c(O)c3c(c(O)c1C2=O)C[C@@](O)(C(C)=O)C[C@@H]3O[C@H]1C[C@H](N)[C@H](O)[C@H](C)O1` [Daunorubicin hydrochloride] as listed: 0.781 ± 0.054 | 0.086 ± 0.035 | 0.116 ± 0.021 | 0.395 ± 0.03 | 0.182 ± 0.016 | 0.0797 ± 0.014 | – | 3.93 ± 0.26 | 2.41 ± 0.078 | 1.29 ± 0.32 | – | 1.67 ± 0.47 | 3.3 ± 0.6 | 3.834 ± 0.037 | 0.679 ± 0.31 | 0.0295 ± 0.019 | 0.00392 ± 0.0043
`COc1cc(N)c(Cl)cc1C(=O)NC1CCN(CCCOc2ccc(F)cc2)CC1OC` (stereo not given) [Cisapride hydrate] as listed: 1.07 ± 0.15 | 1.14 ± 0.091 | 1.15 ± 0.1 | 1.2 ± 0.13 | 1.41 ± 0.3 | 1.1 ± 0.15 | 1.07 ± 0.4 | 0.885 ± 0.34 | 0.835 ± 0.05 | 1.15 ± 0.18 | 0.964 ± 0.13 | 1.38 ± 0.64 | 1.15 ± 0.15 | 0.851 ± 0.25 | 0.857 ± 0.14 | – | –
